Results deposited as PubChem BioAssay AID1259278 (Sanger Institute, 2017).
Shown is an unselected part of 160 reagents. Of all reagents, 54 (34%) got an active call. 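Each call rests on one siRNA duplex in one cell line; gene-level support needs several duplexes and lines.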 The numbers tell different reagents against one gene apart. Viability is capped at 1. Not given: the amount of reagent, the time to read-out.

- Test: 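Follow-up of kinome siRNA hits that combine with three anchor drugs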 (follow-up of hits)
- System: human HT55 colorectal cancer cells
- Reagent: single siRNA against human genes
- Treatment: anchor drugs added to knock-down cells: cetuximab 5 µg/ml, trametinib 10 nM or BYL719 1 µM, against DMSO vehicle; chosen to hurt viability little alone
- Measurement: 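Per-replicate viability normalised to control pool 2 (non-targeting) then averaged, and for every anchor drug a computed synergy score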
- Reading the numbers: synergy score with BYL719 and synergy score with cetuximab and synergy score with trametinib: higher = stronger combined killing with knock-down; viability, knock-down alone (DMSO): higher = more cells survive
- Hit rule: 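a knock-down is called active when its synergy score is above 0.10 for one or more anchor drugs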
- Calls: active = synergy with an anchor drug; inactive = no synergy

| gene symbol | siRNA no. | synergy score with BYL719 | synergy score with cetuximab | synergy score with trametinib | viability, knock-down alone (DMSO) | outcome |
| --- | --- | --- | --- | --- | --- | --- |
| PIK3CA | 1 | 0.0977 | 0.00623 | 0.0653 | 0.708 | inactive |
| PIK3CA | 2 | -0.0255 | 0.0353 | 0.0185 | 0.578 | inactive |
| PIK3CA | 3 | -0.0319 | -0.0863 | 0.0684 | 0.493 | inactive |
| PIK3CA | 4 | -0.0521 | 0.216 | 0.152 | 0.758 | active |
| MPP3 | 1 | -0.118 | 0.0479 | -0.143 | 1 | inactive |
| MPP3 | 2 | -0.11 | -0.177 | 0.0666 | 0.689 | inactive |
| MPP3 | 3 | -0.0215 | -0.0813 | 0.144 | 0.766 | active |
| MPP3 | 4 | -0.0268 | 0.103 | 0.0547 | 0.703 | active |
| PINK1 | 1 | -0.303 | -0.195 | 0.04 | 1 | inactive |
| PINK1 | 2 | 0.0373 | 0.0906 | 0.0288 | 0.842 | inactive |
| PINK1 | 3 | 0.0673 | 0.057 | 0.114 | 0.617 | active |
| PINK1 | 4 | 0.0207 | 0.191 | 0.104 | 0.904 | active |
| CSNK2A2 | 1 | -0.0702 | 0.0393 | 0.0329 | 0.994 | inactive |
| CSNK2A2 | 2 | -0.201 | 0.0174 | 0.0489 | 0.72 | inactive |
| CSNK2A2 | 3 | -0.13 | 0.161 | 0.107 | 0.747 | active |
| CSNK2A2 | 4 | -0.072 | 0.108 | 0.0271 | 0.496 | active |
| GUCY2D | 1 | 0.0329 | 0.233 | 0.262 | 0.999 | active |
| GUCY2D | 2 | -0.0539 | 0.182 | 0.278 | 0.882 | active |
| GUCY2D | 3 | 0.00761 | -0.0191 | 0.097 | 0.674 | inactive |
| GUCY2D | 4 | -0.213 | 0.0615 | 0.0432 | 1 | inactive |
| MAPK4 | 1 | -0.0422 | 0.154 | 0.0611 | 1 | active |
| MAPK4 | 2 | 0.0428 | 0.123 | 0.143 | 0.861 | active |
| MAPK4 | 3 | -0.0274 | 0.188 | 0.0696 | 0.916 | active |
| MAPK4 | 4 | -0.158 | -0.0409 | -0.034 | 0.415 | inactive |
| CDKN2D | 1 | -0.195 | 0.00539 | -0.00642 | 0.699 | inactive |
| CDKN2D | 2 | 0.0186 | -0.0783 | 0.104 | 0.694 | active |
| CDKN2D | 3 | -0.331 | -0.116 | 0.0508 | 1 | inactive |
| CDKN2D | 4 | -0.0312 | -0.0664 | -0.0523 | 0.547 | inactive |
| CAMK2N1 | 1 | -0.0699 | -0.0543 | -0.196 | 0.648 | inactive |
| CAMK2N1 | 2 | -0.173 | 0.0729 | 0.0105 | 0.88 | inactive |
| CAMK2N1 | 3 | -0.057 | 0.00972 | -0.0416 | 0.479 | inactive |
| CAMK2N1 | 4 | -0.207 | -0.0434 | -0.148 | 0.354 | inactive |
| NLK | 1 | -0.0595 | -0.13 | 0.103 | 1 | active |
| NLK | 2 | -0.182 | 0.0208 | 0.0671 | 0.729 | inactive |
| NLK | 3 | -0.331 | 0.0418 | 0.0601 | 1 | inactive |
| NLK | 4 | -0.169 | -0.062 | -0.088 | 0.739 | inactive |

Reprinted from the listing (7 entries):
| gene symbol | siRNA no. | synergy score with BYL719 | synergy score with cetuximab | synergy score with trametinib | viability, knock-down alone (DMSO) | outcome |
| --- | --- | --- | --- | --- | --- | --- |
| MPP3 | 3 | -0.0215 | -0.0813 | 0.144 | 0.766 | active |
| MPP3 | 4 | -0.0268 | 0.103 | 0.0547 | 0.703 | active |
| PINK1 | 1 | -0.303 | -0.195 | 0.04 | 1 | inactive |
| PINK1 | 2 | 0.0373 | 0.0906 | 0.0288 | 0.842 | inactive |
| PINK1 | 3 | 0.0673 | 0.057 | 0.114 | 0.617 | active |
| PINK1 | 4 | 0.0207 | 0.191 | 0.104 | 0.904 | active |
| CSNK2A2 | 1 | -0.0702 | 0.0393 | 0.0329 | 0.994 | inactive |

The list goes on.
| gene symbol | siRNA no. | synergy score with BYL719 | synergy score with cetuximab | synergy score with trametinib | viability, knock-down alone (DMSO) | outcome |
| --- | --- | --- | --- | --- | --- | --- |
| NR2F2 | 1 | 0.0824 | 0.0281 | 0.207 | 0.889 | active |
| NR2F2 | 2 | -0.104 | 0.0409 | 0.129 | 0.905 | active |
| NR2F2 | 3 | -0.184 | 0.0617 | 0.00774 | 0.909 | inactive |
| NR2F2 | 4 | -0.0308 | -0.0851 | 0.122 | 0.74 | active |
| SYNCRIP | 1 | -0.138 | 0.125 | 0.0685 | 0.783 | active |
| SYNCRIP | 2 | -0.331 | -0.0895 | -0.00842 | 1 | inactive |
| SYNCRIP | 3 | -0.0127 | -0.0123 | 0.0428 | 0.533 | inactive |
| SYNCRIP | 4 | -0.196 | 0.0933 | -0.0486 | 0.728 | inactive |
| GRK5 | 1 | -0.186 | -0.187 | -0.106 | 1 | inactive |
| GRK5 | 2 | -0.271 | 0.0243 | 0.00792 | 0.803 | inactive |
| GRK5 | 3 | -0.11 | -0.0311 | -0.0512 | 0.661 | inactive |
| GRK5 | 4 | -0.17 | 0.128 | -0.00136 | 0.662 | active |
| CDK6 | 1 | 0.127 | 0.0742 | 0.159 | 0.887 | active |
| CDK6 | 2 | -0.036 | -0.00834 | 0.025 | 0.278 | inactive |
| CDK6 | 3 | -0.157 | -0.118 | 0.112 | 0.978 | active |
| CDK6 | 4 | -0.293 | 0.261 | 0.195 | 0.979 | active |
| IRAK1 | 1 | -0.0615 | 0.0128 | -0.0814 | 0.714 | inactive |
| IRAK1 | 2 | -0.0845 | -0.0666 | -0.0186 | 0.753 | inactive |
| IRAK1 | 3 | 0.0984 | 0.114 | 0.0583 | 0.801 | active |
| IRAK1 | 4 | -0.0526 | -0.02 | -0.092 | 0.754 | inactive |
| PLK1 | 1 | 0.0442 | -0.00326 | 0.0324 | 0.315 | inactive |
| PLK1 | 2 | -0.0826 | -0.0269 | -0.0413 | 0.207 | inactive |
| PLK1 | 3 | -0.021 | 0.065 | 0.03 | 0.313 | inactive |
| PLK1 | 4 | 0.0171 | 0.0172 | -0.0368 | 0.216 | inactive |
